# Screening data, single-dose tests

Protein sequences, listed by entry. Tags and fused reporters are not part of them. Residues count along the entry.
UniProt A4I591, 1-473: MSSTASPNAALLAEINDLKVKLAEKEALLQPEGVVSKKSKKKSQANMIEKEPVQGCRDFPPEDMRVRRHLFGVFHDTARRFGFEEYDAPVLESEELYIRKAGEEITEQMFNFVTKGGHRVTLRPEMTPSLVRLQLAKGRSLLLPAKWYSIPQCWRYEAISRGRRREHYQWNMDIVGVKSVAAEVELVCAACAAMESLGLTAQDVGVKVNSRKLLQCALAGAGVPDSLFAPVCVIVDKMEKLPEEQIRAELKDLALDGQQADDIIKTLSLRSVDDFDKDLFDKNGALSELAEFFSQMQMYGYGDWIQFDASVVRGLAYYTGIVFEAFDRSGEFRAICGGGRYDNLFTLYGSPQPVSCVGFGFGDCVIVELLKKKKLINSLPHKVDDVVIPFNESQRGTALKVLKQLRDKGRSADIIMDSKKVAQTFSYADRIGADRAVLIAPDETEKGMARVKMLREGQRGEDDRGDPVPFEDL

Data taken from ChEMBL document CHEMBL3988442, “University of Dundee, Small-Polar-MMV Screening Library” (2021).

Results are given as percent effect. The record does not define 0% and 100%; most values in the screen are far below 50% and negative numbers occur (in some assays of this library far below -100). This is an unselected part of the compounds tested.

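Histidine-tRNA ligase, Leishmania infantum (UniProt A4I591). Enzyme assay of histidyl-tRNA synthetase; the read-out is not stated. Compounds at 30 µM. The record gives no direction; compounds that gave an IC50 in retests scored well above the rest, so higher reads as stronger inhibition. The assay is labelled LdHisRS but filed under L. infantum. Of about 69,000 compounds tested this way, about 410 (0.6%) reached 50% or more in at least one test.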

| # | SMILES | percent effect |
|---|---|---|
| 1 | `CC1COCCN1C(=O)c1ccc(=O)n(CCOc2ccccc2)n1` (stereo not drawn) | 8.333 |
| 2 | `O=C(C1CCC1)N1CCC2(CCCN2CC2CC2)CC1` | 26.61 |
| 3 | `Cc1nc2cc(=O)[nH]n2c(C)c1CC(=O)Nc1cn[nH]c1` | 24.73 |
| 4 | `CC(C(=O)N1CCCN(Cc2cnn(C)c2)CC1)n1ccnc1` (stereo not drawn) | 21.43 |
| 5 | `Cc1nc(-c2ccccc2)n(CC(=O)NC2CCCCC2)n1` | 10.43 |
| 6 | `O=C(Nc1ccc(Br)cc1F)c1ccc(N2CCOCC2)nn1` | 14.67 |
| 7 | `CCCn1nccc1C(=O)Nc1nc(C)c(C)s1` | 12.9 |
| 8 | `CN1CCC/C1=N\S(=O)(=O)c1ccc(NC(=O)c2cccs2)cc1` | 25 |
| 9 | `O=C(CCc1cn[nH]c1)N1C[C@@H](CN2CCCCCC2)[C@@H](CO)C1` | 2.151 |
| 10 | `CCN(C)S(=O)(=O)N1CCC(C(O)c2ccc(F)cc2)CC1` (stereo not drawn) | 6.202 |
| 11 | `c1ccc(CN2C[C@H]3CC[C@@H]2CN(Cc2nnc(C4CC4)o2)C3)cc1` | 4.255 |
| 12 | `CC(=O)NC[C@H]1COCc2nc3c(C)cccc3n21` | 20.27 |
| 13 | `CCOc1ccc(NCc2cnc(N3CCN(C)CC3)nc2)cn1` | 16.44 |
| 14 | `O=C(NCC1CC1)[C@H]1C[C@@H]2[C@@H](C1)OCCN2Cc1cccnc1` | 0 |
| 15 | `N#Cc1cccc(CN2CC3(CCCCN3c3cncnc3)CC2=O)c1` (stereo not drawn) | 10.53 |
| 16 | `Cc1cc(N(C)C)nc(C2(C)CCCN2C(=O)c2cnccn2)n1` (stereo not drawn) | 10.95 |
| 17 | `CCC(CNC(=O)c1ccc(=O)[nH]n1)N1CCc2ccccc2C1` (stereo not drawn) | 19.23 |
| 18 | `CNC(=O)C1CCCCN1C(=O)Cc1csc(-c2ccc(C)o2)n1` (stereo not drawn) | 16.67 |
| 19 | `CC(C)=CCNC1CCCN(c2ccc(C)nn2)C1` (stereo not drawn) | 16.42 |
| 20 | `CC(=O)N1CCC2(CC1)COCCN2CCN(C)C` | 13.21 |
| 21 | `O=C(NCC(Cc1cccc(F)c1)N1CCCC1=O)c1cnccn1` (stereo not drawn) | 17.31 |
| 22 | `N#CC1CCCN(S(=O)(=O)c2ccc(C(=O)NCC(F)F)cc2)C1` (stereo not drawn) | 0.885 |
| 23 | `COC(=O)c1ccc(N2CCN(C(=O)CC(F)(F)F)C(C)C2)cc1` (stereo not drawn) | 8.333 |
| 24 | `CCN(CC)C(=O)c1ccc(-n2ncc(C#N)c2N)cc1` | 5.128 |
| 25 | `CN(Cc1ccc(-n2cccn2)cc1)c1cc(N)nc(N)n1` | 34.21 |
| 26 | `Cc1cccc(S(=O)(=O)N2C[C@@H]3OCCN(C(C)C)[C@@H]3C2)c1` | 16.24 |
| 27 | `COc1cc(CNc2nc3c(c(=O)[nH]2)CCNC3)cc(OC)c1OC` | 6.383 |
| 28 | `O=C([C@H]1CCCO1)N1Cc2nccn2CC(COc2cccnc2)C1` (stereo partly drawn) | 13.89 |
| 29 | `O=C(Nc1ccccn1)c1nc(N2CCCC2)ncc1Cl` | 18.18 |
| 30 | `Cc1cnc(NC(=O)C(C)Oc2ccc3c(c2)OCO3)s1` (stereo not drawn) | 19.47 |
| 31 | `Cn1cc(CN2CCC(CCC(=O)Nc3ccccc3Cl)CC2)cn1` | 31.43 |
| 32 | `COc1ccc(CNC(=O)NCCc2csc(C)n2)cn1` | 12.28 |
| 33 | `CC(Oc1ccc(OCc2ncc(C(C)C)o2)cc1)C(N)=O` (stereo not drawn) | 11.29 |
| 34 | `COCCCN(CCOC)C(=O)Nc1ccc(C)cc1C` | -5.714 |
| 35 | `CCc1cnc(C)nc1NCCN1CCC(O)CC1` | -1.37 |
| 36 | `Cc1cccc(CN2CCn3cc(Cn4cccn4)nc3C2)n1` | 25.64 |
| 37 | `CCOc1ccccc1C(CC(=O)Nc1ccncc1)NC(C)=O` (stereo not drawn) | 16.07 |
| 38 | `CO[C@@H]1CCN(S(=O)(=O)c2cccs2)[C@H]1Cc1cccnc1` | 8.824 |
| 39 | `CN(C)CCN1C(=O)CCC12CCCN(C(=O)c1ccncc1F)C2` (stereo not drawn) | 21.15 |
| 40 | `CCCc1cc(=O)[nH]c2nnc(SCC(=O)OC)n12` | 8.264 |
| 41 | `CC(=O)Nc1ccc(F)c(S(=O)(=O)NC(C)(C)C)c1` | 10.53 |
| 42 | `Cc1nn(C)c(C)c1S(=O)(=O)N(C)Cc1nn(C)c(Cl)c1Cl` | 8.824 |
| 43 | `COC(=O)N1CCCC(NC(=O)NCc2cccc(C)n2)C1` (stereo not drawn) | 6.612 |
| 44 | `COc1cc(C(=O)Nc2nc(C)no2)ccc1OC(F)F` | 6.78 |
| 45 | `COC(=O)N(C)CCCC(=O)Nc1[nH]nc(-c2ccncc2)c1C` | 11.11 |

6 of the entries, repeated:

Result for Cc1cccc(S(=O)(=O)N2C[C@@H]3OCCN(C(C)C)[C@@H]3C2)c1 was 16.24%.
Result for Cc1nn(C)c(C)c1S(=O)(=O)N(C)Cc1nn(C)c(Cl)c1Cl was 8.824%.
Result for CC(C(=O)N1CCCN(Cc2cnn(C)c2)CC1)n1ccnc1 (stereo not drawn) was 21.43%.
Result for Cc1nc(-c2ccccc2)n(CC(=O)NC2CCCCC2)n1 was 10.43%.
Result for CCOc1ccc(NCc2cnc(N3CCN(C)CC3)nc2)cn1 was 16.44%.
Result for COc1cc(CNc2nc3c(c(=O)[nH]2)CCNC3)cc(OC)c1OC was 6.383%.